The source of these data is PMC6949113, “Preclinical evaluation of AT-527, a novel guanosine nucleotide prodrug with potent, pan-genotypic activity against hepatitis C virus” (PLoS ONE, 2020).

This data set can be described thus: Monkey PK study, liver and heart tissue levels. It counts as in vivo, cynomolgus monkey. Particulars: for Mean Concentration at 4 hr Postdose, Heart: footnoted values extrapolated below LLOQ. An excerpt:
Monkey PK study. Male non-naïve cynomolgus monkeys were obtained from Hainan Jingang Laboratory Animal Co., Ltd. (Hainan, China), group housed during the 5-day acclimation period or individually housed during the study in stainless steel mesh cages, provided ad libitum access to RO water, fed twice daily (~120 g Certified Monkey Diet daily; Beijing Vital Keao Feed Co., Ltd., Beijing, China) and given daily treats of fresh fruit. Additional environmental enrichment included classical music and cartoons. Three groups of 5 monkeys each were administered 30, 100 or 300 mg/kg AT-527 as a powder filled in empty porcine hard gelatin capsules (size 0). The monkeys were fasted overnight prior to dosing and fed 4 h after dosing. Three dosages were selected to provide assessments of dose proportionality, the top two representing potential doses for a repeated oral dose toxicity study in monkeys, and the lowest predicted to be more therapeutically relevant. A pill gun was used to place the capsule beyond the root of the animals’ tongues and their mouths were held loosely closed for approximately 30 sec to allow them to move the jaw and swallow the capsule. Immediately following capsule administration, 20 mL of water was given by mouth and then the mouth was opened to ensure the capsule was swallowed. Blood samples (~0.6 mL) were collected up to 72 h from three animals per dose group, and up to 4 h from the remaining two animals in each group, at the same time points described for rats. […] Blood samples were collected with a syringe from a peripheral blood vessel from restrained, non-sedated animals, immediately transferred to pre-chilled tubes containing ~1 mg K2EDTA•2H20 and 20 μL of 5 mM dichlorvos solution, mixed and placed on ice until plasma was prepared by centrifugation as described for rats. Immediately after centrifugation, plasma samples were extracted with 4 volumes ISS2, and the supernatants were clarified by centrifugation (12,000 rpm, 10 min, 4°C) and stored at ≤ -60°C until analyzed by LC-MS/MS as described below. After the 4-hr blood collection, two monkeys per dose group were anesthetized with intravenous injection of pentobarbital sodium (60 mg/kg) and then euthanized as described for rats. […] All analytes were quantitated by LC-MS/MS as described below.
For the analysis of AT-9010 in rat tissue homogenate supernatant, aliquots were diluted 1:2 with water and injected onto an Agilent Zorbax Extend C18 5 μm, 2.1 × 50 mm column and a Sciex API 4000 mass spectrometer (ESI positive ion, MRM mode). Mobile phases A (0.001% ammonia and 0.18 mM DBAA in water (1:1, v/v) and B (10 mM dimethylhexylamine (DMHA) and 3 mM AA in 50% ACN in water) were used to elute samples (60 μL) at 0.7 mL/min with 2% B for 0.8 min followed by a linear gradient to 30% B over 0.4 min, isocratic elution at 30% B for 0.4 min, a linear gradient to 95% B over 0.4 min, and ending with 95% B for 0.4 min. The analysis of AT-9010 in monkey tissue homogenate supernatant was the same except the sample injection volume was 20 μL. Attempts to measure tissue levels of other potentially formed TPs, including 2,6-diaminopurine-2’-F-2’-C-methylribosyl-5’-triphosphate and 2-amino-6-methylaminopurine-2’-F-2’-C-methylribosyl-5’-triphosphate (M2-TP), also used this method.
For the analysis of M2 and M3 in monkey tissue homogenate supernatant, aliquots were diluted 1:3 with water and injected onto an Acuity HSS T3 1.8 μm, 2.1 × 50 mm column and a Sciex API 6500 mass spectrometer (ESI positive ion, MRM mode). Mobile phases A (0.3% FA and 10 mM AA in water and B (0.3% FA and 10 mM AA in 95% ACN in water) were used to elute samples (1 μL) at 0.6 mL/min with 0% B for 0.4 min followed by linear gradients to 30% B over 0.5 min and to 95% B over 0.2 min, ending with isocratic elution at 95% B for 0.4 min.

The source gives many values for each of these; only a part stands here.

Regarding `CNc1nc(N)nc2c1ncn2[C@@H]1O[C@H](CO[P@](=O)(O)N[C@@H](C)C(=O)O)[C@@H](O)[C@@]1(C)F` [M1], the “Mean Concentration at 4 hr Postdose, Liver” value (from here on “Mean Concentration … Liver”) (AT-527 30 mg/kg oral) was determined as 319 pmol/g; the “Mean Concentration … Liver” value (AT-527 100 mg/kg oral) is listed as 671 pmol/g; the “Mean Concentration … Liver” value (AT-527 300 mg/kg oral) amounted to 3510 pmol/g. The “Mean Concentration at 4 hr Postdose, Heart” value (from here on “Mean Concentration … Heart”) is, setting by setting: (AT-527 30 mg/kg oral) 86.3 pmol/g; (AT-527 100 mg/kg oral) 187 pmol/g; (AT-527 300 mg/kg oral) 630 pmol/g.

As to `CNc1nc(N)nc2c1ncn2[C@@H]1O[C@H](CO)[C@@H](O)[C@@]1(C)F` [M4], the “Mean Concentration … Liver” value came out at 381 pmol/g (AT-527 30 mg/kg oral), 1340 pmol/g (AT-527 100 mg/kg oral) and 1950 pmol/g (AT-527 300 mg/kg oral). For the same molecule, the “Mean Concentration … Heart” value (AT-527 30 mg/kg oral) is listed as 180 pmol/g; the “Mean Concentration … Heart” value (AT-527 100 mg/kg oral) is given as 717 pmol/g; the “Mean Concentration … Heart” value (AT-527 300 mg/kg oral) is 1040 pmol/g.
